Experimental findings from PubChem BioAssay AID1347423 (Functional Genomics Laboratory (NCATS/FGL), 2020) are described below.

The campaign covered roughly 52,000 sequences. About 210 (0.4%) were called active.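 The calls were made as follows: active = gene whose silencing raises cell survival under the drug, median off-target-corrected z-score across its silencing RNAs 2 or more; inactive = the rest.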 The list shows a part of the results.

The test is described as follows: Resistance to Poly (ADP-Ribose) Polymerase inhibitor: Gene Identification via Genome-wide siRNA Screen. The following applies: mouse BRCA2 R2336H ES cells, olaparib, CellTiter-Glo viability; active compounds read high. The procedure, abridged: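 Genome-wide siRNA screen (3 siRNAs/gene, 20 nM) in mouse ES cells carrying hypomorphic BRCA2 R2336H; olaparib 500 nM added 48 h post-transfection, CellTiter-Glo viability 72 h later. Normalized to plate-median negative control; MAD z-scores, gene median, seed-adjusted.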
For orientation: In ATP-based viability assays light output follows the ATP content of the culture.
Turning to “GGAAACCAAUAACUGUUUATT against C130073F10Rik”, the z-score is inactive: 0.392. The figure for GGCAAAGAUCGCAUCUUAATT against Eif2c2 is inactive: 0.222; for GGAAGAGAAGCUGAACAAGTT against Gja1 it is inactive: -2.07; for GCUACCUUGAAUUUUCCGATT against Fxr2h it is inactive: 0.359. The figure for GCAGCAUGGCAAAACCACATT against Bat9 is inactive: -0.176.

With GGUCUGUAUGAAGACAUUATT against Tprt, the z-score is inactive: 0.824. On to “GCAACGAGGUACUGUUUUATT against 5430435G22Rik”, for which the z-score was inactive: 1.3.

For the sequence GGUGAUAGGUGUUAGACUATT against D18Wsu98e, the z-score is inactive: 0.147. For the sequence “GCAUUGAAUUGCACUAUUGTT against 4933424B01Rik”, the z-score was inactive: -1.68. The figure for “GGACAAUUGGAAGAUUUGGTT against A430106J12Rik” is inactive: 0.132; for GGUGUUGUUUUACUUCUGUTT against Timp2 it is inactive: 0.315; for GGAACUGAGAUCAUUCUGCTT against Olfr140 it is inactive: -0.677.

GGAAUUCUUAAGAAGUUACTT against Dsg2: the z-score is inactive: -0.0763. The figure for GGUUAAAUCGAUUUUGCAUTT against Acbd5 is inactive: 0.663; for GGUGGUGGCAGAAAUGAAUTT against Dpep2 it is inactive: 1.52; for GCACCUCCUUAUGUGUCAUTT against Chrm2 it is inactive: 0.305.

Consider GGUUGUAUUGGAUAUCAAGTT against Ceacam2, for which the z-score is inactive: 0.456. The figure for GGCAGAGUAUGAGUUUGACTT against Camk1 is inactive: 1.52. With “GCUCUUAAAAACUCAGCUUTT against 4933408F15” the figure was inactive: -0.746; with GGGAGGAGUAAUAAUCCCGTT against B3gnt1, inactive: -0.128; with “GGCAUAACCGCCAUGUCAGTT against 2610034E18Rik”, inactive: -0.438. With GGCAACAGCAGCUUAUGCCTT against Map3k11 the figure was inactive: -0.988.

As for GGUUAUCACUCCUCAACAATT against Foxp1, the z-score is inactive: -0.826.

In the case of CCGUUUAUAAAGAUCAGCUTT against Sara2, the z-score was inactive: 0.721.

GCCAGGUGGAUUUGACUAUTT against Ptprv: the z-score was inactive: 0.968. GCCUUCUGGGUAGAAACUGTT against Lcn12: the z-score is inactive: -1.59. The figure for GCUUACCACUAAGCAUCUUTT against Ctsc is inactive: -1.19; for “GGAAAAUUCAUCCUUAGUATT against 2700038L12Rik” it is inactive: 1.02. With GGAAGAUAUUGCUGUUGGATT against Mbd4 the figure was inactive: -1.1; with GGACUUUGCACUUCUCACATT against Fut1, inactive: 0.0519; with GCAAUACCUCAGAAAAAGUTT against Tparl, inactive: -0.983.

Take “GCCAUCCUUCCAUUUAAGATT against 2410187C16Rik”: the z-score is inactive: -0.594. With GGCUUUUCACACGAUAGGGTT against Rab9b the figure was inactive: -0.926; with CCGUAGGAGAAGAAAUCCGTT against Grap2, inactive: 2.63; with CCAAAUUUGGCAUUUCUAATT against Slc31a1, inactive: -1.76.

With GGCAAGAACAUUUUAUCAATT against Adamts12, the z-score is inactive: 2. The figure for “GCCUGUAUCAAUAAUUCAATT against 2300003P22Rik” is inactive: 1.24; for GGUUUACUCAGUUAACAGATT against Tgoln1 it is inactive: 0.826. The figure for GGUGGUGAUUCAUCUGUGCTT against Tas2r135 is inactive: -1.53; for GCAAAUCCCAUGAACAGCUTT against Nvl it is inactive: 1.27; for “GCUCAUCUCCUUGAAUUCATT against 9430057O19Rik” it is inactive: -0.287. Regarding GGAGGAAAAGAAAAUUGAGTT against Nef3, the z-score was inactive: 0.84.

Turning to GCGCAGAGGGAUCAUAGAGTT against Heyl, the z-score is inactive: 0.592. For the sequence “GGAGUCAAAAAUGCAUUCATT against C330023D02Rik”, the z-score was inactive: -0.914. With GGGUCAUGUUUUUAAGAAGTT against Sdfr2 the figure was inactive: 0.391; with GGAACUGAAACAGUUGGAATT against Tmod2, inactive: 0.518; with GGAUGAAACUAUUCAGCACTT against Chml, inactive: 0.176.

Regarding GCAUGACAGAGUUAUUCAUTT against Olfr474, the z-score is inactive: 0.132. The figure for CGACUAUGGUUUAAUCAUCTT against Atp11a is inactive: 0.383. The figure for “CGGUACAGGGUAAAGGACATT against 4931440B09Rik” is inactive: -0.305; for “CCUAUUAAAUCUCUGUAAGTT against D030051D21” it is inactive: -0.621; for GGAAUUUUGCCACUAAGAUTT against Pfkm it is inactive: -1.9. With GGAGCUGAAUGUGUUUCGGTT against Vmd2l1 the figure was inactive: 0.371.

On to “GCCGGCCAGAAUAUACAUUTT against B930041F14Rik”, for which the z-score was inactive: -1.52. With “CCGGAGUCAGUAUCCAGAATT against 1110007M04Rik”, the z-score is inactive: -1.64.

On to GGUUUCUCGACCUACAUUUTT against BC040823, for which the z-score was inactive: -1.24. The figure for “GGCAUCAAAGUGACAGAUGTT against 4921511I16Rik” is inactive: -0.915.

GGACUCUGCCUUUGACCCATT against Myl4: the z-score was inactive: -0.112.

As to GGAACACUCAGGUCUUUCUTT against Olfr450, the z-score was inactive: -1.55.

In the case of GGAGCCCAAAAAGAAGAAATT against Mrpl48, the z-score was inactive: 0.144. The figure for CGGCAAUUCCAGAAAUGAUTT against Wbscr16 is inactive: 0.597; for “GGACUUUCUUGAGGUAUUATT against 2810453K03Rik” it is inactive: 0.03; for “GGCAAUAAUCUUAGAGGUUTT against 9530068E07Rik” it is inactive: -1.84.

On to “GCGAAGGAUGAUGUGUAUUTT against 2610529C04Rik”, for which the z-score was inactive: 0.6. With GGAGUUUGCCAGUCAGAUCTT against Ralgps1 the figure was inactive: -2.04; with “GGAAGUACAGUGGUCUCUGTT against 4930477M19”, inactive: -0.412. As for GGCUUUAAGGGACAACUGATT against D17Wsu94e, the z-score is inactive: -0.639. Regarding GGUAUUAAAUGCUAUGCUGTT against Srp54, the z-score was inactive: 0.945. With GGUGGUGCAUCCUAAGAAATT against Gp1bb the figure was inactive: 0.959. With CCUCAGAAAAAGCCUAUAGTT against Kcnj3 the figure was inactive: -1.21.

GGAUCAAGAUGUUUACUAATT against Nedd1: the z-score was inactive: -0.37.

With GGCCAAUAAAGAAACAAACTT against Cst9, the z-score is inactive: 1.86. Consider CCAUGCUUUUGAUUUUAGUTT against Lrig2, for which the z-score was inactive: 0.867. Regarding GGUACAUUAAGGCACUGGCTT against Mgat5, the z-score was inactive: -0.0193. GUGCUUUCGUGUUUUUCAATT against Klrb1b: the z-score is inactive: 0.521.

As for GGAUUAUACACACGAAUUUTT against Gosr1, the z-score was inactive: 0.404. The figure for GGCAACAGCCAUCUAAACGTT against Cdkn2d is inactive: -0.277; for GGCCCUCAGUUAUUAUGAGTT against AI661311 it is inactive: 0.298. The figure for “GGAAUAUCAGCCAUAAGUUTT against A930004D23Rik” is inactive: -0.0561. As to “CCCUAGCAUCAAGAGUGCUTT against 2510002A14Rik”, the z-score was inactive: 0.159. With GGCCAUUCAGAUCUUAACCTT against Hadhsc the figure was inactive: -0.0172; with GGUUAAACUUGGUGAAUUATT against Kcnj16, inactive: -0.334.

For the sequence GGUCUUAAGUUCAGAACCCTT against Gtlf3b, the z-score is inactive: 0.173. For CGUUCUACCAAUCAUUAAUTT against Mrpl49, the z-score is inactive: -0.0188. The figure for GGUGUCAUGAUGAACACAGTT against Slc22a12 is inactive: -0.801; for CCACUUAGGUUAGAAAGAATT against R3hdm it is inactive: -0.949. With GGCAAUCACGUGACAUUUCTT against Stk31 the figure was inactive: -1.25; with GGUUCAUCGUUUUUAAUAGTT against Emb, inactive: 0.402; with CUCCUCAGUCAACAAGAACTT against Hoxc11, inactive: -0.826. With GGAGAAGGUUUUGAUGUGGTT against Drg1 the figure was inactive: 1.11; with GGGAGUAUGUUUGUGGCUCTT against Edg1, inactive: -0.109. For the sequence CGUAGCCGAGAAGACCCUATT against Shh, the z-score is inactive: 0.637. As for GGUGUUGUUCCCUGUAAUATT against Tde2, the z-score is inactive: -0.824. With CGCUGCUGUAUAAGCCCAUTT against Prkab2, the z-score is inactive: -1.11. With GUGUUCUAUGGAUCCUCUCTT against Fpr-rs4 the figure was inactive: -0.496. For the sequence GGCAAAACUCAUGUUCUUUTT against Prox1, the z-score is inactive: -0.771. As for “GGAUCUGGUUGGCAAGCAUTT against 2310015J09Rik”, the z-score was inactive: 0.686. The figure for “CCAAUGUGAUCUUGAGCCATT against 1110012D08Rik” is inactive: -1.94; for GGGAUAGUGUAAGUUAGUUTT against Dppa4 it is inactive: 1.58; for “CCACUGUCAGGCCAAAAACTT against 2210417J20Rik” it is inactive: -1.18. The figure for “GGUCCUUAGCUGAGUCAUUTT against D14Ertd449e” is inactive: 1.2; for GGAAGACGACACUGUGUGGTT against Dp1l1 it is inactive: 1.41; for “GGGUAUGAGGGCCAAAAUATT against A230106M15Rik” it is inactive: -2.94.
